Reference: paper doi:10.1101/2024.10.25.620210
Results are given in words; binding and its absence hold for the method and conditions named. A result given as binding can be weak or reduced; the word gives no strength. For part of these data: Binding seen in cells or lysates may run through a third protein. For part of these data: Sequences can lack the tags named with a protein.

How the values were obtained:
[1] = target: T1, β’ subunit of the Sinapis alba plastid-encoded RNA polymerase (SaPEP) (Sinapis alba) (UniProt P46819); assay: cryo-EM structure
T1 sequence: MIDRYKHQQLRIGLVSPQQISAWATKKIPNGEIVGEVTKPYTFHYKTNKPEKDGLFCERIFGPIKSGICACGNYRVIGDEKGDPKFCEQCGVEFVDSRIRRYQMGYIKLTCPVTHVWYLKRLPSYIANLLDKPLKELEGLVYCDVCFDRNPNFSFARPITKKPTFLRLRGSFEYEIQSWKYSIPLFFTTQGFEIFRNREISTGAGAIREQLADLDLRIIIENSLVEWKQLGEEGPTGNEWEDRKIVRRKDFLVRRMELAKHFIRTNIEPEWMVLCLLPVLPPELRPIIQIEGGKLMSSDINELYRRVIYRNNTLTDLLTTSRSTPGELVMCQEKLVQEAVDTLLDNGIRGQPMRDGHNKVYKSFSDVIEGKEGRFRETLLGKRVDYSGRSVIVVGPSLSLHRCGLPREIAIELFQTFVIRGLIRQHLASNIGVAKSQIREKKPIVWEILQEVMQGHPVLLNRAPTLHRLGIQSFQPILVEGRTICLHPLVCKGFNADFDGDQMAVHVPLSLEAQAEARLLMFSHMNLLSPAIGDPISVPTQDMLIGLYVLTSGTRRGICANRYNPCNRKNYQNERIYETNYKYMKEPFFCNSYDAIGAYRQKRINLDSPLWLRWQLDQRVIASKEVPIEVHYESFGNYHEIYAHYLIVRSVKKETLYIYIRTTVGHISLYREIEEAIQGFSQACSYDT

[2] = target: T2, PAP8 split-YFP fusion (BiFC of Figure 5d) (Arabidopsis thaliana) (UniProt Q9XI19); assay: split reporter
T2 sequence: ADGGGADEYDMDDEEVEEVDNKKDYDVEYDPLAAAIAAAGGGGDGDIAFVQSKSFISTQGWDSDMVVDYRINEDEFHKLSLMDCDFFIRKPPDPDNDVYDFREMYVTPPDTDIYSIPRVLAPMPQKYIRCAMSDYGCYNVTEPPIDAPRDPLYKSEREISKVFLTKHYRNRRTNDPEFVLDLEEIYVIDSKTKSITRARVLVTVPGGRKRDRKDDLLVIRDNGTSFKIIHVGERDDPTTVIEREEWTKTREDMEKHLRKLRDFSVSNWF

[3] = target: T3, β’’ subunit of the Sinapis alba plastid-encoded RNA polymerase (SaPEP) (Sinapis alba) (UniProt Q9THV5); assay: cryo-EM structure
T3 sequence: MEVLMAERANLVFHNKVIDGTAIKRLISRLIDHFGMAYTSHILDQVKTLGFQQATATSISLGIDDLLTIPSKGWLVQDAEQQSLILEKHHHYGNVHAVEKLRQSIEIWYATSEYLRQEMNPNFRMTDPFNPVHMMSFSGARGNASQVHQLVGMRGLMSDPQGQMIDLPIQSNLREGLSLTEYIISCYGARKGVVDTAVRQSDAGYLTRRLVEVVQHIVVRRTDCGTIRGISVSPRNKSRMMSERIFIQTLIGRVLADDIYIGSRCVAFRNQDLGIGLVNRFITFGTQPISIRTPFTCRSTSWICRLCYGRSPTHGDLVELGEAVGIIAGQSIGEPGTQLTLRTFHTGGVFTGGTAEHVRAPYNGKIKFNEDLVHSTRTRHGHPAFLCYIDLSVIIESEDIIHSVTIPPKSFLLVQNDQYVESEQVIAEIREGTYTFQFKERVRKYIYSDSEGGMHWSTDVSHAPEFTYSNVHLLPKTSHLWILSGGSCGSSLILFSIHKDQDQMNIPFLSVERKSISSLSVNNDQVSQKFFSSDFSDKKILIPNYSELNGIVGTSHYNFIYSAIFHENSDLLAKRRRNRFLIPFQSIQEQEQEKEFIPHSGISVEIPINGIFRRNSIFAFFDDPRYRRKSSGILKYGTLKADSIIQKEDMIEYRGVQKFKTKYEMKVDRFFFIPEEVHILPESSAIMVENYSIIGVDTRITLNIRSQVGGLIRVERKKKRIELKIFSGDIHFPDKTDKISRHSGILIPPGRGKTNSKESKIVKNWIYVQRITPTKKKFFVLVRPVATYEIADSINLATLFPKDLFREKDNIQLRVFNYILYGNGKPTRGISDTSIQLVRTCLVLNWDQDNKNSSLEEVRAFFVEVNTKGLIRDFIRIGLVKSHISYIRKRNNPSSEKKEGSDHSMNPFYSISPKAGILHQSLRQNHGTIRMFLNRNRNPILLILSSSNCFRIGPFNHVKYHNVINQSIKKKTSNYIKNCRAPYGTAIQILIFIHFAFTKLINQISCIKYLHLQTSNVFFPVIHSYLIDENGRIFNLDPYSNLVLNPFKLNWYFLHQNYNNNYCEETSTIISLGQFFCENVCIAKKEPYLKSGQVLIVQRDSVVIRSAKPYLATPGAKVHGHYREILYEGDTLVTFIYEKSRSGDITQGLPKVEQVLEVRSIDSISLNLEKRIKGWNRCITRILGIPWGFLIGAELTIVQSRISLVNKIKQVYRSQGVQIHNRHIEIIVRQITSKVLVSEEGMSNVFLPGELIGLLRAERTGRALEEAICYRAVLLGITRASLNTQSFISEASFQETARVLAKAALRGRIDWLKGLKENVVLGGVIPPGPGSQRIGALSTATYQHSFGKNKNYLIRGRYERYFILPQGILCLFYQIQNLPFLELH

| Substance | binding [2] | binding [3] | other results |
| --- | --- | --- | --- |
| PEP-associated protein 11 (PAP11, MurE-like protein) of Sinapis alba | – | – | binding [1]: binds |
| M24 split-YFP fusion (Arabidopsis thaliana) | binds | – | – |
| STICL split-YFP fusion (Arabidopsis thaliana) | binds | – | – |
| pTAC18/PAP14 of Sinapis alba | – | binds | – |
| pTAC18 split-YFP fusion (Arabidopsis thaliana) | binds | – | – |
| PRIN2/PAP15 of Sinapis alba | – | binds | – |
